Results taken from the supplement of paper PMC10849652.
The other results are listed elsewhere or left out.

Protein sequences, listed by entry. Tags and fused reporters are not part of them. Lines headed by an entry give the natural chain unless they say otherwise; changes in a name come on top.
UniProt Q9BUL9: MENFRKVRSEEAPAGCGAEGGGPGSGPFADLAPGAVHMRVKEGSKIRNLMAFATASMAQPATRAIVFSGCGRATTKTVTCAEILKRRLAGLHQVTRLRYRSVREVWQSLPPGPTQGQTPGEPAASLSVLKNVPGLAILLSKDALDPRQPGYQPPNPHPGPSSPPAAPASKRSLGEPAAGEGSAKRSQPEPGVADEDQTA
UniProt O75695: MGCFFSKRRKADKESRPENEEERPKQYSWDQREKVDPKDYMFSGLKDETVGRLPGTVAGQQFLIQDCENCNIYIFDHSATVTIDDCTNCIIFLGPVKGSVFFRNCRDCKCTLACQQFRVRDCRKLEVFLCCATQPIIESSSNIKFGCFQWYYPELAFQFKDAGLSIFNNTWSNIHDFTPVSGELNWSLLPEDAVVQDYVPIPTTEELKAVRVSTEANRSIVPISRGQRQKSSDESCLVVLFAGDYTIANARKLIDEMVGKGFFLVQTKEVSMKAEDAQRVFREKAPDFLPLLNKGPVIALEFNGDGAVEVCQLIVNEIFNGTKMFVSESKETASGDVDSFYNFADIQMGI

Columns and labels:
Assay in all cases: log2 fold change, soluble protein after heating vs DMSO (PISA); higher = thermal stabilisation; K562 cells, 10 uM, 30 min; active = over 0.2 and 3.5 SD of the protein, either way, in both replicates (recomputed)
[1] = compound: CC1=C(C=C(C=C1)NC(=O)C2=CC(=CC=C2)C(C)(C)C#N)NC3=CC4=C(C=C3)N=CN(C4=O)C
Outline: (§1)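 K562 cells at 2×10^6 cells/mL were given 10 μM compound for 30 min. Aliquots then went through 3 min of heating across 48°C-58°C, were pooled, and were extracted in PBS with 0.5% NP-40 at 4°C, and the supernatant after 21,000xg for 90 min was quantified by TMTpro 16plex LC-MS/MS with channel sums equalised. Thermal stability relative to control samples, from duplicates, is given as log2 fold change.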

[2] = compound: CC1=C(C=C(C=C1)NC(=O)C2=CC(=CC=C2)N(C)C)NC(=O)C3=CC=C(C=C3)O
Outline: as §1

[3] = compound: CC1=CC=C(C=C1)SC2=C3C=C(SC3=CN=C2)C(=O)N
Outline: as §1

[4] = compound: CC1=NC(=CC=C1)C2=C(N=C(N2)C(C)(C)C)C3=CC4=NC=CN=C4C=C3
Outline: as §1

Nexturastat A = compound: CCCCN(Cc1ccc(C(=O)NO)cc1)C(=O)Nc1ccccc1 [Nexturastat A]
Outline: as §1

vemurafenib = compound: CCCS(=O)(=O)Nc1ccc(F)c(C(=O)c2c[nH]c3ncc(-c4ccc(Cl)cc4)cc23)c1F [vemurafenib]
Outline: as §1

[5] = compound: CCCS(=O)(=O)Nc1ccc(F)c(C(=O)c2c[nH]c3ncc(Cl)cc23)c1F
Outline: as §1

[6] = compound: CCCc1cc(C)[nH]c(=O)c1CNC(=O)c1cc(-c2ccnc(N3CCN(C)CC3)c2)cc2c1cnn2C(C)C
Outline: as §1

givinostat = compound: CCN(CC)Cc1ccc2cc(COC(=O)Nc3ccc(C(=O)NO)cc3)ccc2c1 [givinostat]
Outline: as §1

barasertib = compound: CCN(CCCOc1ccc2c(Nc3cc(CC(=O)Nc4cccc(F)c4)[nH]n3)ncnc2c1)CCOP(=O)(O)O [barasertib]
Outline: as §1

Measured: log2 fold change

RPL34 (UniProt P49207)
inactive: [1] 0.013 | [2] -0.004 | [3] -0.119 | [4] -0.219 | Nexturastat A 0.331 | vemurafenib -0.239 | [5] -0.123 | [6] 0.212 | givinostat 0.117 | barasertib -0.236

RPL9 (UniProt P32969)
inactive: [1] 0.022 | [2] 0 | [3] 0 | [4] -0.214 | Nexturastat A 0.397 | vemurafenib -0.264 | [5] -0.111 | [6] 0.257 | givinostat 0.042 | barasertib -0.199

RPS23 (UniProt P62266)
inactive: [1] 0.05 | [2] 0.051 | [3] -0.086 | [4] -0.108 | Nexturastat A 0.267 | vemurafenib -0.186 | [5] -0.065 | [6] 0.113 | givinostat -0.022 | barasertib -0.121

RPS6 (UniProt P62753)
inactive: [1] 0 | [2] 0 | [3] -0.071 | [4] -0.077 | Nexturastat A 0.227 | vemurafenib 0.034 | [5] 0.029 | [6] 0.152 | givinostat 0.024 | barasertib -0.15

RPP25 (UniProt Q9BUL9)
inactive: [1] 0.011 | [2] 0.033 | [3] -0.007 | [4] 0.113 | Nexturastat A 0.098 | vemurafenib -0.083 | [5] -0.036 | [6] -0.083 | givinostat 0.003 | barasertib -0.006

RPL8 (UniProt P62917)
inactive: [1] -0.05 | [2] 0.002 | [3] -0.091 | [4] -0.164 | Nexturastat A 0.391 | vemurafenib -0.316 | [5] -0.087 | [6] 0.201 | givinostat 0.047 | barasertib -0.267

Reprinted from the entries so far (two entries):
RPP25 (UniProt Q9BUL9)
inactive: [1] 0.011 | [2] 0.033 | [3] -0.007 | [4] 0.113 | Nexturastat A 0.098 | vemurafenib -0.083 | [5] -0.036 | [6] -0.083 | givinostat 0.003 | barasertib -0.006

RPL8 (UniProt P62917)
inactive: [1] -0.05 | [2] 0.002 | [3] -0.091 | [4] -0.164 | Nexturastat A 0.391 | vemurafenib -0.316 | [5] -0.087 | [6] 0.201 | givinostat 0.047 | barasertib -0.267

Continued:

RPL5 (UniProt P46777)
inactive: [1] 0.006 | [2] 0.01 | [3] -0.046 | [4] -0.136 | Nexturastat A 0.223 | vemurafenib -0.052 | [5] 0 | [6] 0.132 | givinostat 0.003 | barasertib -0.057

RP2 (UniProt O75695)
inactive: [1] 0.146 | [2] -0.084 | [3] -0.037 | [4] 0.038 | Nexturastat A 0.035 | vemurafenib -0.047 | [5] 0.016 | [6] -0.111 | givinostat -0.097 | barasertib -0.049
